This note sets out measurements from PMC8516343.

By UniProt entry, the sequences of proteins in these tests, tags left out.
UniProt P18848: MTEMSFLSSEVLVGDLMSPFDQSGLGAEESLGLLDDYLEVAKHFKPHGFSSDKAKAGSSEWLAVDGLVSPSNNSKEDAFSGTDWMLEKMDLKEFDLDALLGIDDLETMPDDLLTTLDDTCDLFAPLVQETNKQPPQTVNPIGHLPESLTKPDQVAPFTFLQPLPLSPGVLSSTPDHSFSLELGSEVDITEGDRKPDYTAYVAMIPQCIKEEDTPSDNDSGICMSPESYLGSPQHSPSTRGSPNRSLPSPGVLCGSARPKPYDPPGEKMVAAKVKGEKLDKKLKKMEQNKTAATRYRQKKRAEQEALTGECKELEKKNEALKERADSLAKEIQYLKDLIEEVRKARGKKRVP
UniProt P49674: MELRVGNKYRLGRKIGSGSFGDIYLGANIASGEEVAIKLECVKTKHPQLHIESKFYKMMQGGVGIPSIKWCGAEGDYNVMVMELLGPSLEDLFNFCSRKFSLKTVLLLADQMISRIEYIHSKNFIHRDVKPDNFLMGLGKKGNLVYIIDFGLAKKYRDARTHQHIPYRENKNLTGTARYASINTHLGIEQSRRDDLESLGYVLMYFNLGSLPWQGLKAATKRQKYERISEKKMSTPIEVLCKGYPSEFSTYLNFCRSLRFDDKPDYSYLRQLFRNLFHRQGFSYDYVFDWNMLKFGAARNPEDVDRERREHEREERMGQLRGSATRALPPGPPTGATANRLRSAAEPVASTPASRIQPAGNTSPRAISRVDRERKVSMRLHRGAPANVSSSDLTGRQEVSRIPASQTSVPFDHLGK

No constants are given. Whether binding was seen depends on the method and setting. Binding seen in cells or lysates may run through a third protein.

The target of the test is HA-ATF4 (full-length wild-type) (human) (UniProt P18848). Kind of test: co-IP; anti-HA co-IP from HEK293T cells co-transfected with HA-ATF4 and Flag-CK1α/δ/ε, western blot with anti-Flag and anti-ATF4.

Regarding “Flag-CK1ε (from UniProt P49674 1-416) (enzyme)”, the binding result is given as “no binding”.
